Experimental data: publication PMC5069480

Chains of the proteins cited; added tags and fusions are not shown. Lines headed by an entry give the natural chain unless they say otherwise; changes in a name come on top.
UniProt Q6AYP5: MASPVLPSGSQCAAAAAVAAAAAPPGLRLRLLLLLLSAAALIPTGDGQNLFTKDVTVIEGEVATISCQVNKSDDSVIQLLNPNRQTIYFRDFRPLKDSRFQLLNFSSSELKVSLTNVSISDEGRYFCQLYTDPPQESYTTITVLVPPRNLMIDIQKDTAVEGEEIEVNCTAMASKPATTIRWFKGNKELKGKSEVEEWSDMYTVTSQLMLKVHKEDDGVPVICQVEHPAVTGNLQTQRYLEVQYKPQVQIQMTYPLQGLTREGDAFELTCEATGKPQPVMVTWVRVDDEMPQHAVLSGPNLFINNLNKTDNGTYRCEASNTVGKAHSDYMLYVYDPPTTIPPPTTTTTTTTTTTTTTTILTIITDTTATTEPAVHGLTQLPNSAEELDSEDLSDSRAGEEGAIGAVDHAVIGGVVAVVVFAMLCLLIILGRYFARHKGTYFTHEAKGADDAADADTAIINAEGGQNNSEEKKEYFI

Molecular target: full-length HA-tagged mutant SynCAM1 (rat) (UniProt Q6AYP5)
Test: co-IP; tagged recombinant proteins coexpressed in COS7 cells; lysis in 50 mM Tris pH 7.4, 100 mM NaCl, 1 mM EDTA, 1% Triton-X or 0.1% NP-40; IP with anti-MYC, anti-HA or anti-PSD-95 antibody (mouse IgG as control), protein-G-agarose, 4 °C; western blot

B1: MYC-tagged full-length mouse MPP2 (MAGUK p55 subfamily member 2) (protein, UniProt Q9WV34-1 1-552)
chain: MPVAATNSESAMQQVLDNLGSLPNATGAAELDLIFLRGIMESPIVRSLAKAHERLEETKLEAVRDNNLELVQEILRDLAELAEQSSTAAELARILQEPHFQSLLETHDSVASKTYETPPPSPGLDPTFSNQPVPPDAVRMVGIRKTAGEHLGVTFRVEGGELVIARILHGGMVAQQGLLHVGDIIKEVNGQPVGSDPRALQELLRSASGSVILKILPSYQEPHLPRQVFVKCHFDYDPARDSLSPCKEAGLRFNAGDLLQIVNQDDANWWQACHVEGGSAGLIPSQLLEEKRKAFVKRDLELTPTSGTLCGSLSGKKKKRMMYLTTKNAEFDRHELLIYEEVARMPPFRRKTLVLIGAQGVGRRSLKNKLILWDPDRYGTTVPYTSRRPKDSEREGQGYSFVSRGEMEADIRAGRYLEHGEYEGNLYGTRIDSIRGVVASGKVCVLDVNPQAVKVLRTAEFVPYVVFIEAPDYETLRAMNRAALESGVSTKQLTEADLRRTVEESSRIQRGYGHYFDLSLVNSNLERTFRELQTAMEKLRTEPQWVPVSWVY
binding: no binding

No constants are given. Whether binding was seen depends on the method and setting. Binding seen in cells or lysates may run through a third protein. Tags and fused reporters may be left off the sequences shown.
